# Source: PubChem BioAssay AID686938 (Drosophila RNAi Screening Center, 2013)
# Screen: 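Looking for CRAC channel components and the factors controlling them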 (primary screen)
# System: Drosophila S2R+ cells
# Knock-down reagent: long dsRNA against Drosophila genes, about 0.25 µg dsRNA per well, roughly 10,000 cells
# Timing: 5 days of knock-down before the calcium assay
# Challenge: thapsigargin (SERCA pump blocker) to empty calcium stores; entry signal taken 4 min after adding it
# Detection: 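Per-well fluo-4 fluorescence in two replicates, unnormalised, measured in resting cells and 4 min after store depletion by the SERCA blocker thapsigargin; ratio of the two present in few wells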
# Reading the numbers: calcium entry signal: higher = stronger calcium signal after store depletion; entry to resting ratio: higher = more calcium entry relative to resting level; resting calcium signal: higher = higher resting calcium signal
# Rule for the call: 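Hit if the duplicate-averaged plate z-score for entry over resting signal is under −3; wells with weak total dye signal (Fmax z < −2) or more than 5 off-targets removed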
# Calls: active = strongly reduced calcium entry; inactive = no strong reduction
# The deposit covers about 23,000 reagents; below is an unselected part of those with a known target gene and a result. In the full data, 75 (0.33%) were called active. 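Raw plate signals without normalisation; calls rest on plate z-scores that were not deposited; ratio present for only 364 wells.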 Entries without a mark were called inactive. Not given: the dose of the treatment.
target,dsRNA,"calcium entry signal, replicate 1 (fluorescence units)","calcium entry signal, replicate 2 (fluorescence units)",entry to resting ratio,"resting calcium signal, replicate 1 (fluorescence units)","resting calcium signal, replicate 2 (fluorescence units)"
drk (downstream of receptor kinase),DRSC07606,2.36e7,2.95e7,,1.19e7,1.55e7
par-1,DRSC05792,1.74e7,4.65e7,,1.02e7,2.31e7
par-1,DRSC06098,4.97e7,6.70e7,,2.23e7,3.04e7
par-1,DRSC06616,3.18e7,2.90e7,,1.45e7,1.42e7
par-1,DRSC07660,3.11e7,4.82e7,,1.69e7,2.54e7
par-1,DRSC07661,5.72e7,7.05e7,,2.44e7,3.21e7
VhaSFD (Vacuolar H[+]-ATPase SFD subunit),DRSC03471,6.39e7,,,4.65e7,
fy (fuzzy),DRSC03533,3.24e7,4.62e7,,1.68e7,1.91e7
trk (trunk),DRSC03625,3.79e7,4.88e7,,1.81e7,2.11e7
Zcchc7 (Zinc finger CCHC-type containing 7),DRSC11099,2.49e7,3.21e7,,1.39e7,2.42e7
tipE (temperature-induced paralytic E),DRSC08738,4.38e7,4.17e7,,3.17e7,1.82e7
STUB1 (STIP1 homology and U-box containing protein 1),DRSC03282,3.10e7,4.30e7,,1.59e7,1.82e7
CG14418,DRSC18637,7.18e7,5.66e7,2.3,3.18e7,2.40e7
CG14418,DRSC23051,3.36e7,4.18e7,,1.72e7,1.83e7
CG34357,DRSC12211,2.67e7,6.12e7,,1.33e7,2.64e7
CG34357,DRSC12238,3.45e7,5.68e7,,1.78e7,2.70e7
CG34357,DRSC12334,3.23e7,5.57e7,,1.66e7,2.59e7
CG34357,DRSC23031,3.71e7,3.32e7,,1.89e7,1.52e7
dom (domino),DRSC04558,3.41e7 (active),,,2.60e7,
dom (domino),DRSC04559,2.75e7,3.53e7,,1.62e7,2.03e7
CG31343,DRSC15887,2.94e7,2.54e7,,1.48e7,1.15e7
CG11696,DRSC19417,3.08e7,4.68e7,,1.58e7,1.93e7
CG11929,DRSC00339,2.61e7,2.52e7,,1.25e7,1.23e7
CG13999,DRSC02331,3.81e7,3.07e7,,1.70e7,1.37e7
CG11164,DRSC19392,4.79e7,3.82e7,,2.36e7,1.84e7
CG11912,DRSC00332,4.36e7,,,1.97e7,
CG31031 (retired record),DRSC13964,3.95e7,3.53e7,,1.93e7,1.90e7
sima (similar),DRSC17055,3.92e7,6.63e7,,2.18e7,3.33e7
sima (similar),DRSC23203,4.09e7,5.12e7,,2.18e7,2.39e7
CG8066,DRSC16374,2.91e7,5.03e7,,1.45e7,6.78e7
eIF6 (eukaryotic translation initiation factor 6),DRSC04674,1.99e7,,,1.02e7,
"Br140 (Bromodomain-containing protein, 140kD)",DRSC06755,2.59e7,,,1.50e7,
CG4199,DRSC18519,3.02e7,3.83e7,,1.38e7,1.65e7
CG4199,DRSC21314,3.12e7,3.13e7,,1.62e7,1.43e7
CG31741,DRSC02887,4.82e7,4.08e7,,2.11e7,1.89e7
Helz (Helicase with zinc finger),DRSC11072,2.86e7,4.43e7,,1.35e7,2.71e7
CG7083,DRSC11136,2.59e7,3.91e7,,1.26e7,1.78e7
CG2614,DRSC02711,4.29e7,1.79e7,,1.93e7,1.02e7
Csl4,DRSC02944,3.56e7,4.67e7,,1.61e7,1.99e7
Csl4,DRSC22664,2.47e7,1.96e7,,1.32e7,9.83e6
